Experimental data published in patent US20240368269A1.
Where a chain is given by its changes, count along the chain named. Results are given in words; binding and its absence hold for the method and conditions named. Some entries that bind do so weakly or less than the wild type.

Chains of the proteins cited; added tags and fusions are not shown. Lines headed by an entry give the natural chain unless they say otherwise; changes in a name come on top.
UniProt Q9NYJ7: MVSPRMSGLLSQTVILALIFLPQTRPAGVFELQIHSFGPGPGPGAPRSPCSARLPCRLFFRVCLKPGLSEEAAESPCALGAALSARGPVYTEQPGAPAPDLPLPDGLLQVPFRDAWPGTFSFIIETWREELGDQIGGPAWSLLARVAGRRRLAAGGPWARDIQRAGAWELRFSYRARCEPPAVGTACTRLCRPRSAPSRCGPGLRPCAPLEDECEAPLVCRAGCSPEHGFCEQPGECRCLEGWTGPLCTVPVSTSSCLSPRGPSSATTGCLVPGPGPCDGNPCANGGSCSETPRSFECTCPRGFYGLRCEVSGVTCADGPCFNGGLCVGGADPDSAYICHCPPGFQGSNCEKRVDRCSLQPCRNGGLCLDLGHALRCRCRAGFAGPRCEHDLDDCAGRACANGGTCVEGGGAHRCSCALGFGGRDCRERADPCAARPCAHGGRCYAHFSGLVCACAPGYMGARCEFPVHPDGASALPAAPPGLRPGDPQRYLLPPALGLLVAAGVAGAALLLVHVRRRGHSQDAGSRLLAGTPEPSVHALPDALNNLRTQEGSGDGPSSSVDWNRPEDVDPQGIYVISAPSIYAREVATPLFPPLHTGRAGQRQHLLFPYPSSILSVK

B1: L22 (antibody, V domains shown)
VH: EVQLLESGGGLVQPGGSLRLSCAASGFTFSSYAMGWVRQTPGKGLEWVSTISGRGGDTYYADSVKGRFTISRDNSKNTLYLQMNSLRAEDTAIYYCAKERGLGFDYWGQGTLVTVSS
VL: DIVMTQTPLSLPVTPGEPASISCRSSQSLLDSDDGNTYLDWYLQKPGQSPQLLIYTLSYRASGVPDRFSGSGSGTDFTLKISRVEAEDVGVYYCMQHLEFPLTFGGGTKVEIK
B2: F9 (antibody, V domains shown)
VH: QVQLVQSGAEVKKPGASVQVSCKASGYTFTSYYMHWVRQAPGQGLEWMGIINPSGGSTSYAQKFQGRVTMTRDTSTSTVYMELSSLRSEDTAVYYCARQGGAQWLVLAFDIWGQGTMVTVSS
VL: EIVLTQSPGTLSLSPGERATLSCRASQSVSSYLAWYQQKPGQPPRLLIYGASSRATGIPDRFSGGGSGTDFTLTISRLEPEDFAVYYCQQYDSSPYTFGQGTKLEIK
B3: G16 (antibody, V domains shown)
VH: B2 VH
VL: B2 VL with P43A, D92G
B4: A18 (antibody, V domains shown)
VH: QVTLRESGPALVKSTQTLTLTCTFSGFSLSTSGMCVSWIRQTPGKALEWLALIDWDDNKYYSTSLKTRLIISKDTSKNQVVLTMTNMEPVDTATYYCARIRGYSGSYDAFDIWGQGTMVTVSS
VL: DIVMTQSPLSLPVTPGEPASISCRSSQSLLHSNGYNYLDWYLQKPGQSPHILLYLGSNRAPGVPDRFSGSGSGTDFTLKISRVEAEDVGVYYCMQALQTPFTFGPGTKVDIK
B5: E9 (antibody, V domains shown)
VH: QVQLVQSGAEVKKPGASVKVSCKASGYTFTSYYMHWVRQAPGQGLEWMGVINSSGGSTSYAQKFQGRVTMTRDTSTSTVYMDLSSLRSEDTAVYYCARGYCTNGVYYDEDFDYWGQGTLVTVSS
VL: DIQMTQSPSSLSASVGDRVTITCRASQGISHYLAWFQQKPGKAPTSLIYAASSLQSGVPSKFSGSGSGTDFTLTISSLQPEDFATYYCQQYNSYPLTFGGGTKVEIK
B6: O24 (antibody, V domains shown)
VH: QVQLVQSGAEVKKPGASVKVSCKASGYTFTSYYLHWVRQAPGHGLEWMAIINPSGGSTSYAQKFLGRVTMTRDTSTNTVYMELSSLRSEDTAVYYCARERQQLDYYYFAMDVWGQGTTVTVSS
VL: B5 VL with H31N, T45K, L96P, G100Q
B7: B16-v2 (antibody, V domains shown)
VH: QVQLVQSGAEVKKPGASVKVSCKASGYTFTSYYMHWVRQAPGQGLEWMGIIDPSGGSTSYAQKFQGRVTMTRDTSTNTVYMDLSSLRSEDTAVYYCARQGRYVGSYLDYWGQGTLVTVSS
VL: B5 VL with H31N, T45K, L47V, L78M, L96Y, G100Q, V104L
B8: J8 (antibody, V domains shown)
VH: QVHLVQSGAEVKKPGASVKVSCKASGYTFTIYYIHWVRQAPGQGLEWMGIINPSGGSTSYAQKFQGRVTMTRDTSTSTVYMELSSLRSEDTAVYYCSGNDYVDYVTTDYYGMDVWGQGTTVTVSS
VL: B5 VL with H31N, T45K, Y94S, L96Y, G100Q, V104L
B9: B2 (antibody, V domains shown)
VH: QVQLVQSGAEVKKPGASVKVSCKASGYTFTSYYMHWVRQAPGQGLEWMGIINPSGGSTSYAQKFRGRVTMTRDTSTSTVYMELSSLRSEDTAVYYCARGDYDILTDYYYNMDVWGQGTTVTVSS
VL: DIQMTQSPSAMSASVGDRVTITCRASQGISNYLAWFQQKPGKVPKRLIYAASSLQSGVPSRFSGSGSGTEFTLTISSLQPEDFATYYCLQHNSYPYTFGQGTKLEIK
B10: E23 (antibody, V domains shown)
VH: QVQLVQSGAEVRKPGASVKVSCKASGYTFTGYYMHWVRQAPGQGLEWMGWINSYSGGANYAQKFQDRVTMTRDTSVSTASMELSRLRSDDTAVYYCARDGSGWYGSYFDFWGQGTLVTVSS
VL: DIVMTQTPLSSPVTLGQPASISCRSSQSLVHSDGNTYLSWLQQRPGQPPRLLIYKISNRFSGVPDRFSGSGAGTDFTLKISRVEAEDVGFYYCIQTTQFPLTFGGGTKVEIK

Biological target: Histidine-tagged DLL3 antigen (DLL3-His) (human) (UniProt Q9NYJ7)
Experiment: epitope binning, Carterra array SPR, capture of DLL3-His

binding	Binder
binds	B1
binds	B2
binds	B3
binds	B4
binds	B5
binds	B6
binds	B7
binds	B8
binds	B9
binds	B10
